Some of the results follow.
Legend:
Assay in all cases: glycan array binding signal (z-score within array); higher = stronger binding
Details in all cases: glycan notation: IUPAC condensed, linker removed
[1] = biological target: Neu5Ac(a2-3)Gal(b1-3)[Fuc(a1-4)]GlcNAc
How it was run: (§1)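 Glycan array binding is given as a within-array Z-score, which can be read as non-binding when negative. The arrays, 3228 of them, came from the Consortium for Functional Glycomics database and were retained only where the protein sequence was available. Z-scores were averaged across arrays of the same protein sequence at different concentrations or buffers and across linkers.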

[2] = biological target: Neu5Ac(a2-3)Gal(b1-3)[Fuc(a1-4)]GlcNAc(b1-3)Gal(b1-3)[Fuc(a1-4)]GlcNAc
How it was run: as §1

[3] = biological target: Neu5Ac(a2-3)Gal(b1-3)[Fuc(a1-4)]GlcNAc(b1-3)Gal(b1-4)[Fuc(a1-3)]GlcNAc
How it was run: as §1

[4] = biological target: Neu5Ac(a2-3)Gal(b1-3)[GlcNAc(b1-6)]GalNAc
How it was run: as §1

[5] = biological target: Neu5Ac(a2-3)Gal(b1-3)[Neu5Ac(a2-6)]GalNAc
How it was run: as §1

[6] = biological target: Neu5Ac(a2-3)Gal(b1-3)[Neu5Ac(a2-6)]GlcNAc(b1-3)[Fuc(a1-3)[Gal(b1-4)]GlcNAc(b1-6)]Gal(b1-4)Glc
How it was run: as §1

[7] = biological target: Neu5Ac(a2-3)Gal(b1-3)]Neu5Ac(a2-3)Gal(b1-4)]GlcNAc
How it was run: as §1

Neu5Ac(a2-3)Gal(b1-4)Glc = biological target: Neu5Ac(a2-3)Gal(b1-4)Glc
How it was run: as §1

[8] = biological target: Neu5Ac(a2-3)Gal(b1-4)GlcNAc
How it was run: as §1

[9] = biological target: Neu5Ac(a2-3)Gal(b1-4)GlcNAc(b1-2)Man
How it was run: as §1

[10] = biological target: Neu5Ac(a2-3)Gal(b1-4)GlcNAc(b1-2)Man(a1-3)[GlcNAc(b1-4)][Neu5Ac(a2-3)Gal(b1-4)GlcNAc(b1-2)Man(a1-6)]Man(b1-4)GlcNAc(b1-4)GlcNAc
How it was run: as §1

[11] = biological target: Neu5Ac(a2-3)Gal(b1-4)GlcNAc(b1-2)Man(a1-3)[Neu5Ac(a2-3)Gal(b1-4)GlcNAc(b1-2)Man(a1-6)]Man(b1-4)GlcNAc(b1-4)GlcNAc
How it was run: as §1

[12] = biological target: Neu5Ac(a2-3)Gal(b1-4)GlcNAc(b1-2)Man(a1-3)[Neu5Ac(a2-3)Gal(b1-4)GlcNAc(b1-2)Man(a1-6)]Man(b1-4)GlcNAc(b1-4)[Fuc(a1-6)]GlcNAc
How it was run: as §1

[13] = biological target: Neu5Ac(a2-3)Gal(b1-4)GlcNAc(b1-2)Man(a1-3)[Neu5Ac(a2-6)Gal(b1-4)GlcNAc(b1-2)Man(a1-6)]Man(b1-4)GlcNAc(b1-4)GlcNAc
How it was run: as §1

[14] = biological target: Neu5Ac(a2-3)Gal(b1-4)GlcNAc(b1-2)[Neu5Ac(a2-3)Gal(b1-4)GlcNAc(b1-4)]Man(a1-3)[GlcNAc(b1-4)][Neu5Ac(a2-3)Gal(b1-4)GlcNAc(b1-2)[Neu5Ac(a2-3)Gal(b1-4)GlcNAc(b1-6)]Man(a1-6)]Man(b1-4)GlcNAc(b1-4)GlcNAc
How it was run: as §1

[15] = biological target: Neu5Ac(a2-3)Gal(b1-4)GlcNAc(b1-2)[Neu5Ac(a2-3)Gal(b1-4)GlcNAc(b1-4)]Man(a1-3)[GlcNAc(b1-4)][Neu5Ac(a2-3)Gal(b1-4)GlcNAc(b1-4)Man(a1-6)]Man(b1-4)GlcNAc(b1-4)GlcNAc
How it was run: as §1

[16] = biological target: Neu5Ac(a2-3)Gal(b1-4)GlcNAc(b1-2)[Neu5Ac(a2-3)Gal(b1-4)GlcNAc(b1-6)]Man(a1-6)[Neu5Ac(a2-3)Gal(b1-4)GlcNAc(b1-2)Man(a1-3)]Man(b1-4)GlcNAc(b1-4)GlcNAc
How it was run: as §1

[17] = biological target: Neu5Ac(a2-3)Gal(b1-4)GlcNAc(b1-2)[Neu5Ac(a2-3)Gal(b1-4)GlcNAc(b1-6)]Man(a1-6)[Neu5Ac(a2-3)Gal(b1-4)GlcNAc(b1-2)Man(a1-3)][GlcNAc(b1-4)]Man(b1-4)GlcNAc(b1-4)GlcNAc
How it was run: as §1

[18] = biological target: Neu5Ac(a2-3)Gal(b1-4)GlcNAc(b1-3)Gal
How it was run: as §1

[19] = biological target: Neu5Ac(a2-3)Gal(b1-4)GlcNAc(b1-3)Gal(b1-3)GlcNAc
How it was run: as §1

[20] = biological target: Neu5Ac(a2-3)Gal(b1-4)GlcNAc(b1-3)Gal(b1-4)GlcNAc
How it was run: as §1

[21] = biological target: Neu5Ac(a2-3)Gal(b1-4)GlcNAc(b1-3)Gal(b1-4)GlcNAc(b1-2)Man(a1-3)[Neu5Ac(a2-3)Gal(b1-4)GlcNAc(b1-3)Gal(b1-4)GlcNAc(b1-2)Man(a1-6)]Man(b1-4)GlcNAc(b1-4)GlcNAc
How it was run: as §1

[22] = biological target: Neu5Ac(a2-3)Gal(b1-4)GlcNAc(b1-3)Gal(b1-4)GlcNAc(b1-3)Gal(b1-4)GlcNAc
How it was run: as §1

[23] = biological target: Neu5Ac(a2-3)Gal(b1-4)GlcNAc(b1-3)Gal(b1-4)GlcNAc(b1-3)Gal(b1-4)GlcNAc(b1-2)Man(a1-3)[Neu5Ac(a2-3)Gal(b1-4)GlcNAc(b1-3)Gal(b1-4)GlcNAc(b1-3)Gal(b1-4)GlcNAc(b1-2)Man(a1-6)]GalNAc
How it was run: as §1

[24] = biological target: Neu5Ac(a2-3)Gal(b1-4)GlcNAc(b1-3)Gal(b1-4)GlcNAc(b1-3)GalNAc
How it was run: as §1

[25] = biological target: Neu5Ac(a2-3)Gal(b1-4)GlcNAc(b1-3)Gal(b1-4)GlcNAc(b1-3)[Neu5Ac(a2-3)Gal(b1-4)GlcNAc(b1-3)Gal(b1-4)GlcNAc(b1-6)]GalNAc
How it was run: as §1

[26] = biological target: Neu5Ac(a2-3)Gal(b1-4)GlcNAc(b1-3)Gal(b1-4)GlcNAc(b1-6)[Gal(b1-3)]GalNAc
How it was run: as §1

[27] = biological target: Neu5Ac(a2-3)Gal(b1-4)GlcNAc(b1-3)Gal(b1-4)[Fuc(a1-3)]GlcNAc
How it was run: as §1

[28] = biological target: Neu5Ac(a2-3)Gal(b1-4)GlcNAc(b1-3)GalNAc
How it was run: as §1

[29] = biological target: Neu5Ac(a2-3)Gal(b1-4)GlcNAc(b1-3)[Neu5Ac(a2-3)Gal(b1-4)GlcNAc(b1-6)]GalNAc
How it was run: as §1

B1: SP15308F-bth-333-19-333 (Bacteroides thetaiotaomicron) (protein)
chain: SCNNEWESEQYVQMVSFKAPVNAQGVTPIYIRYKPEGKVTYQLPLIVSGSTMNSKDLNVHVGLDLDTLDVLNVEHFGSRKELFFKPLENKYYEFPETVQIPAGECTSLLPIDFALKDLDQVDKWVLPLAIQSNDPSHNYQANPRKFYRRAMLRISPFNDYSGQYSATAYKVYFKGNEKEAIVPEYHTSYVIDDKTIFFYAGLIDIDRLDRKYYKIKFEFTEEKIDLQTRKLKISSDNEDINLVVKGQPSYTVEEEMDATRPYLKHIYVTINNLEYEFTDYTSVPGYPLEYVVKGSLTMERKINTQIPDEDQAIEW
- glycan array binding signal (z-score) [1]: -0.068
- glycan array binding signal (z-score) [2]: 1.04
- glycan array binding signal (z-score) [3]: -0.239
- glycan array binding signal (z-score) [4]: 1.33
- glycan array binding signal (z-score) [5]: -0.352
- glycan array binding signal (z-score) [6]: -0.039
- glycan array binding signal (z-score) [7]: -0.935
- glycan array binding signal (z-score) (Neu5Ac(a2-3)Gal(b1-4)Glc): 0.589
- glycan array binding signal (z-score) [8]: -0.055
- glycan array binding signal (z-score) [9]: -0.553
- glycan array binding signal (z-score) [10]: 0.75
- glycan array binding signal (z-score) [11]: -0.825
- glycan array binding signal (z-score) [12]: -0.251
- glycan array binding signal (z-score) [13]: -1.15
- glycan array binding signal (z-score) [14]: 1.69
- glycan array binding signal (z-score) [15]: -0.961
- glycan array binding signal (z-score) [16]: -0.534
- glycan array binding signal (z-score) [17]: -0.036
- glycan array binding signal (z-score) [18]: 1.19
- glycan array binding signal (z-score) [19]: 0.811
- glycan array binding signal (z-score) [20]: 0.018
- glycan array binding signal (z-score) [21]: 2.21
- glycan array binding signal (z-score) [22]: 0.083
- glycan array binding signal (z-score) [23]: 1.32
- glycan array binding signal (z-score) [24]: -0.513
- glycan array binding signal (z-score) [25]: -0.332
- glycan array binding signal (z-score) [26]: -0.196
- glycan array binding signal (z-score) [27]: 0.395
- glycan array binding signal (z-score) [28]: -1.44
- glycan array binding signal (z-score) [29]: -0.819

Source: the supplement of paper PMC8728848
